Measurements: the supplement of paper PMC10849652
The list shows a part of the results.

Sequences of proteins named here, by UniProt entry; tags and fusion partners are left off. A change or cut given only in a name is not applied to a line headed by its entry.
UniProt Q659A1: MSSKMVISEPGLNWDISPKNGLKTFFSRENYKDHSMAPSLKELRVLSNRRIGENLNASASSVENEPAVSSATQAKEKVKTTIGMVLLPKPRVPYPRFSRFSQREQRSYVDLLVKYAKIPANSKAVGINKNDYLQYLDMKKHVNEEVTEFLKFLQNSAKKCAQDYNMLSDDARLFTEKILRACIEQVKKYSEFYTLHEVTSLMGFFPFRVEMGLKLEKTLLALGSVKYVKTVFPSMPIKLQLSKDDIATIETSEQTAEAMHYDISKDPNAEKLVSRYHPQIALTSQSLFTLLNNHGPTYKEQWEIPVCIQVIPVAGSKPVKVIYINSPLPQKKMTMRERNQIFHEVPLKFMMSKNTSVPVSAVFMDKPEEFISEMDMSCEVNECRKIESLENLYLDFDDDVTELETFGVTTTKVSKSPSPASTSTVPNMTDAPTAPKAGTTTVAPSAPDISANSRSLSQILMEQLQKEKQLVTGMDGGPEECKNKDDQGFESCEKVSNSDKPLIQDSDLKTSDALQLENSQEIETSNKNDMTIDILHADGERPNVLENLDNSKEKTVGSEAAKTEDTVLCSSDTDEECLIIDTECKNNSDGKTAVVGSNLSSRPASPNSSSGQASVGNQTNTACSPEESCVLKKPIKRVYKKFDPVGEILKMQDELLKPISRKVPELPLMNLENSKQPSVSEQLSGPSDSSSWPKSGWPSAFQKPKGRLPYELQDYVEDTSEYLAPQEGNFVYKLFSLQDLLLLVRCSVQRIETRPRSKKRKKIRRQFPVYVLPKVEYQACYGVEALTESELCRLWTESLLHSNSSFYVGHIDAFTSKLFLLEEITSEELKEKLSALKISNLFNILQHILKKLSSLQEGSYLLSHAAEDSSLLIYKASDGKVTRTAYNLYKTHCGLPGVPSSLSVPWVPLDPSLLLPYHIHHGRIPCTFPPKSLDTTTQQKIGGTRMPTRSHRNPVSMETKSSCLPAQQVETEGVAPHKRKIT
UniProt Q8TB92: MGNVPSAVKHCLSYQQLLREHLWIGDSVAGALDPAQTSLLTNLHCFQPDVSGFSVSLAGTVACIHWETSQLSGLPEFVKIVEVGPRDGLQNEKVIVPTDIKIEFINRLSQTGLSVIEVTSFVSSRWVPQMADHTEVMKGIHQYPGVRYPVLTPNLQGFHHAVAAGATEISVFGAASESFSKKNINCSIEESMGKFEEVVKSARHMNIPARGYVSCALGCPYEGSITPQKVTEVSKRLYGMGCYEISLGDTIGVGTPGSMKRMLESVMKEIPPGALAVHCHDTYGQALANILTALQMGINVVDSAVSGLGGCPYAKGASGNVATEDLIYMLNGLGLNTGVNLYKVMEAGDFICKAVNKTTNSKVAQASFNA
UniProt Q9NSB8: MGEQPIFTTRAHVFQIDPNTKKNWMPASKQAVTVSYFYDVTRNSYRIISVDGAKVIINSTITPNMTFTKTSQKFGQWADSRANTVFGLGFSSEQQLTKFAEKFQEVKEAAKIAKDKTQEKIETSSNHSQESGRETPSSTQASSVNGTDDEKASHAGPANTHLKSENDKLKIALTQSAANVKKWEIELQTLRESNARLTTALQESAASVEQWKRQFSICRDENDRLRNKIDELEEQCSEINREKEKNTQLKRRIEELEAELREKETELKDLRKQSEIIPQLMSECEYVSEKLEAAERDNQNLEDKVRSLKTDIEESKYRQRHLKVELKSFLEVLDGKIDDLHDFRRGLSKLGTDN
UniProt Q9NWT6: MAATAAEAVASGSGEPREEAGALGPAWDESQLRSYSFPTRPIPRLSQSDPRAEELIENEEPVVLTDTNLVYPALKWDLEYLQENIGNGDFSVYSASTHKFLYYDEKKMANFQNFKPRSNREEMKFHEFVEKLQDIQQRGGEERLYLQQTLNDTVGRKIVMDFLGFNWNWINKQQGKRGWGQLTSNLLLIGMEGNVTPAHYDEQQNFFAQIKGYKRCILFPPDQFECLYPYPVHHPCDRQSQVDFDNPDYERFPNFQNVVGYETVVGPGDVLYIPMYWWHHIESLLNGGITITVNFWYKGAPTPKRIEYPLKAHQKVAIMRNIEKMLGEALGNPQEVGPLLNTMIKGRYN
UniProt Q00613: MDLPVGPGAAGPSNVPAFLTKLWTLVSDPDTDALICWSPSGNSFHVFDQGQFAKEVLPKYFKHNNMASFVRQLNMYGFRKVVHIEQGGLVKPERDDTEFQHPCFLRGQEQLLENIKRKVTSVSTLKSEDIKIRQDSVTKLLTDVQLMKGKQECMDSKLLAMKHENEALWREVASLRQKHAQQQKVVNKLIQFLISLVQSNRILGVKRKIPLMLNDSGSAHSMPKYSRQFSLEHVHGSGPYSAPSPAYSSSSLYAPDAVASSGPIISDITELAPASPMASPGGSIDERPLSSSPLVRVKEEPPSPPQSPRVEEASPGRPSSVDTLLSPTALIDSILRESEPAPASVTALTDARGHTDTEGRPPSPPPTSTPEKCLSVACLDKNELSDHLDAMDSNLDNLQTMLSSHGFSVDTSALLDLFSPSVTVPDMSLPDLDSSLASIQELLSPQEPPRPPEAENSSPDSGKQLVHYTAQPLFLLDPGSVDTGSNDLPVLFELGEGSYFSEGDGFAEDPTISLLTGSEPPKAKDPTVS
UniProt P28356, whole entry, looked up: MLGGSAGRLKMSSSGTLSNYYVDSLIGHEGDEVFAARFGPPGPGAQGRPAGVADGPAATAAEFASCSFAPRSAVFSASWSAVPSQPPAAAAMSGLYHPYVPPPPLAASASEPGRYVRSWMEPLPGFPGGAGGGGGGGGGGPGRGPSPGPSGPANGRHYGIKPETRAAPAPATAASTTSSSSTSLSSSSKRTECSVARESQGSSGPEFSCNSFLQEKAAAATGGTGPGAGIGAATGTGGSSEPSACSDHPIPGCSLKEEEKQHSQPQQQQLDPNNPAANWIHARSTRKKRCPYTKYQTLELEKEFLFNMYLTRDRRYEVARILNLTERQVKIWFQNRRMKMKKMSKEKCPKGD
UniProt Q9NSC5: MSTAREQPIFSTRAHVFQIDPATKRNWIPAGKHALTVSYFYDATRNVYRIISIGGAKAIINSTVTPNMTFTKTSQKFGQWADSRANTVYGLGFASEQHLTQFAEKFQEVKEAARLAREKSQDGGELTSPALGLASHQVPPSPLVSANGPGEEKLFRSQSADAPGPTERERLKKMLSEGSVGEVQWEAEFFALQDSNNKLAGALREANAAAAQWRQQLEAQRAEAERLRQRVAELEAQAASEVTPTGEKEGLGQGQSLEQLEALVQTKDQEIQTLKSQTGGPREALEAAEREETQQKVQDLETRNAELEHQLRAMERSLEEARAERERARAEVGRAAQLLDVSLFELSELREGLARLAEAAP
UniProt Q9Y2F5: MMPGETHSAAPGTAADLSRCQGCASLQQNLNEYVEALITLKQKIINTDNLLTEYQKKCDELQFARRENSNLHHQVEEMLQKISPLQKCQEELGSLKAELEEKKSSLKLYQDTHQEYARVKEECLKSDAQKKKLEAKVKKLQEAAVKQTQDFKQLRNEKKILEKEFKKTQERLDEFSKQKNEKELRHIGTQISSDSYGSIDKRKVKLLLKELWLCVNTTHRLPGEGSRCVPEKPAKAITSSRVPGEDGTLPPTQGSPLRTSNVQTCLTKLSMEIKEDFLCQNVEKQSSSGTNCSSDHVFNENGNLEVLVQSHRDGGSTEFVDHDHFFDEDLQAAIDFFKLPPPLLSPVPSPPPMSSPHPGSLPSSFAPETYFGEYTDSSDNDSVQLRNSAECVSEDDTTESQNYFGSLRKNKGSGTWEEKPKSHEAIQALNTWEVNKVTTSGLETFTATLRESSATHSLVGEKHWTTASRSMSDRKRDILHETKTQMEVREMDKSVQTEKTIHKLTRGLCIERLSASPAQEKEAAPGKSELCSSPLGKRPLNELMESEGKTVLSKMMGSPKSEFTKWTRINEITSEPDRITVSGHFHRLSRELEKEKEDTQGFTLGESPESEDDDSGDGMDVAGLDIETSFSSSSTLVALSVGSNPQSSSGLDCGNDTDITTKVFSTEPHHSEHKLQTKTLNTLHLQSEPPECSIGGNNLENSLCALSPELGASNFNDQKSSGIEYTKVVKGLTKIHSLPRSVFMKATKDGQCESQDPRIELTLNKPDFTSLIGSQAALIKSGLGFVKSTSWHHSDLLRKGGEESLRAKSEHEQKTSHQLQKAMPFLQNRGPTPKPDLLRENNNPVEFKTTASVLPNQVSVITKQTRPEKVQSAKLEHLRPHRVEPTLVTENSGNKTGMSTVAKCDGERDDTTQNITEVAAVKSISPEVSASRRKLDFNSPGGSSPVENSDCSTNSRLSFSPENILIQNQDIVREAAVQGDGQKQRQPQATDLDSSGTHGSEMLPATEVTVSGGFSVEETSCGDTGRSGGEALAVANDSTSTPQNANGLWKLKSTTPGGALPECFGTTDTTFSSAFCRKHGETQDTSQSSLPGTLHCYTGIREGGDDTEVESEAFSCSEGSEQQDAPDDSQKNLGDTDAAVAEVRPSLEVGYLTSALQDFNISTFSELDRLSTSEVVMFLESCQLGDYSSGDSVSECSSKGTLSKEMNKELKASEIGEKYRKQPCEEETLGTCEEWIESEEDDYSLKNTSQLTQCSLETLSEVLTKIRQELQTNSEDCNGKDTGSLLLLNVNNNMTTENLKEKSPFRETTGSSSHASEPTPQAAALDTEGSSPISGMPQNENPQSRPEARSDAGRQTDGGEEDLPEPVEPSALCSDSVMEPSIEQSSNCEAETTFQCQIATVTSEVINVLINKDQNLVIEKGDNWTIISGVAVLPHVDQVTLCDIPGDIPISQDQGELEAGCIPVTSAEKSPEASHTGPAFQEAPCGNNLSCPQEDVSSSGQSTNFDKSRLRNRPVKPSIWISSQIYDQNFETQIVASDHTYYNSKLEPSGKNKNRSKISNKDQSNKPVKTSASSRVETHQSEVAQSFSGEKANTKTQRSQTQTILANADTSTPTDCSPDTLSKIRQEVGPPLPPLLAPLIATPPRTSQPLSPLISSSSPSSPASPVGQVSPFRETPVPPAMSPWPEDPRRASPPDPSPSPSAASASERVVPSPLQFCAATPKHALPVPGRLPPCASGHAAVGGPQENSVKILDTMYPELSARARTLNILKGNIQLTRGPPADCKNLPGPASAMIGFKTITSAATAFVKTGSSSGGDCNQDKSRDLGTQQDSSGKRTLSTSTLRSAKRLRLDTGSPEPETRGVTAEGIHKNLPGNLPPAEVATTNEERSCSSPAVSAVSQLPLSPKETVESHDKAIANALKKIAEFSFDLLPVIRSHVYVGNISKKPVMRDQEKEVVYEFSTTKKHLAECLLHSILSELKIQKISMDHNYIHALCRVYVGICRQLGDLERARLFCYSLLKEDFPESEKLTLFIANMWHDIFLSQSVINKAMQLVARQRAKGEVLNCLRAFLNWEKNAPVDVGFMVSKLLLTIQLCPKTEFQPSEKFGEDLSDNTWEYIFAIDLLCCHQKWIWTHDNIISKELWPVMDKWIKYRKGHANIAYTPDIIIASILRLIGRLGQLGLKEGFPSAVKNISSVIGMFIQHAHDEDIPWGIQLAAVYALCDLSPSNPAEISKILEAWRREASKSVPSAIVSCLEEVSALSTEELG
UniProt Q58FF6, whole entry, looked up: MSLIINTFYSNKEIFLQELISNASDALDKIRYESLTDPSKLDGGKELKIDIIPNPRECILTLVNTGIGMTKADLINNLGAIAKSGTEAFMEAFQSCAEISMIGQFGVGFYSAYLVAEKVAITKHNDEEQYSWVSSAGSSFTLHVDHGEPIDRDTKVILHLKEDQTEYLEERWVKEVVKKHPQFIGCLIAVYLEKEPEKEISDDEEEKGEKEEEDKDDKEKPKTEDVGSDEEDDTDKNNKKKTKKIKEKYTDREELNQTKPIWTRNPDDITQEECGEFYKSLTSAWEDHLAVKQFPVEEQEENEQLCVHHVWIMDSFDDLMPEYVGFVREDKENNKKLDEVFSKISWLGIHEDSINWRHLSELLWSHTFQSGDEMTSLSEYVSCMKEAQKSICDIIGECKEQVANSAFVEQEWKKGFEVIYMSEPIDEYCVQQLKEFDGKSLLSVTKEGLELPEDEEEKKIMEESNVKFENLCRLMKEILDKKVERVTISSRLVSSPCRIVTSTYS
UniProt P41134: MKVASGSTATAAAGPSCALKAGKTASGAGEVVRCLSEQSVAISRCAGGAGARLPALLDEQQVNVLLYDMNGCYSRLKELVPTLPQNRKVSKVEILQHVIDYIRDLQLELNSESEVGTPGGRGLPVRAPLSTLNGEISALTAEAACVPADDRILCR
UniProt P50135: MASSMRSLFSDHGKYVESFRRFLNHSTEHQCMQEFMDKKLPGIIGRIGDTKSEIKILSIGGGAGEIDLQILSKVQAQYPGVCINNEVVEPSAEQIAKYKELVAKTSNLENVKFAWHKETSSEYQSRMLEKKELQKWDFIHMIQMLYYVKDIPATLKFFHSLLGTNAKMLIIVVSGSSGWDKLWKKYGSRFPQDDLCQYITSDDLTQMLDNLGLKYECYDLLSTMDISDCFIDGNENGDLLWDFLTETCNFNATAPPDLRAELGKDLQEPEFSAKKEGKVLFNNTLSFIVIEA
UniProt O75506: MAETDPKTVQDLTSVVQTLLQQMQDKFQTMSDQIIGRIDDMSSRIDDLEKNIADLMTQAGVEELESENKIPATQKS

Compound: CCCS(=O)(=O)Nc1ccc(F)c(C(=O)c2c[nH]c3ncc(-c4ccc(Cl)cc4)cc23)c1F [vemurafenib]
Test: log2 fold change, soluble protein after heating vs DMSO (PISA); higher = thermal stabilisation; K562 cells, 10 uM, 30 min; active = over 0.2 and 3.5 SD of the protein, either way, in both replicates (recomputed)
In short: (§1)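 For each measurement, 10 μM compound was applied for 30 min to K562 cells at 2×10^6 cells/mL. Aliquots were heated for 3 min across 48°C-58°C, pooled, and extracted in PBS with 0.5% NP-40 at 4°C; the supernatant after 21,000xg for 90 min was soluble protein. This was quantified by TMTpro 16plex LC-MS/MS with channel sums equalised, and thermal stability was reported relative to control samples from duplicates, on a log2 fold-change scale.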

log2 fold change, inactive:
ICE2 (UniProt Q659A1) -0.17
HMGCLL1 (UniProt Q8TB92) 0.029
HIST2H2AA3 (UniProt Q6FI13) -0.292
HOMER2 (UniProt Q9NSB8) -0.255
HOOK1 (UniProt Q9UJC3) 0.008
ICOSLG isoform 2 (UniProt O75144) 0.397
HMBS (UniProt F5H226) -0.118
HYOU1, A0A494C039 0.466
HIF1AN (UniProt Q9NWT6) 0.025
HSF1 (UniProt Q00613) 0.169
HOXD9 (UniProt P28356) 0.059
HSPBAP1 (UniProt Q96EW2) -0.005
HTD2 (UniProt P86397) -0.008

Compound: CCCS(=O)(=O)Nc1ccc(F)c(C(=O)c2c[nH]c3ncc(Cl)cc23)c1F
Test: as above
In short: as §1

log2 fold change, inactive:
HOOK1 (UniProt Q9UJC3) 0.001
HMGXB4 (UniProt Q9UGU5) 0.018
ICOSLG isoform 2 (UniProt O75144) -0.084
HIF1AN (UniProt Q9NWT6) -0.105
HSF1 (UniProt Q00613) 0.222
HNRNPU isoform 2 (UniProt Q00839) 0.151
HTD2 (UniProt P86397) 0.006
HOOK2 (UniProt Q96ED9) -0.098

Compound: CCCc1cc(C)[nH]c(=O)c1CNC(=O)c1cc(-c2ccnc(N3CCN(C)CC3)c2)cc2c1cnn2C(C)C
Test: as above
In short: as §1

log2 fold change, inactive:
HMGCLL1 (UniProt Q8TB92) -0.019
HIST2H2AA3 (UniProt Q6FI13) 0.194
HOMER3 (UniProt Q9NSC5) -0.123
HOMER2 (UniProt Q9NSB8) -0.011
ICE1 (UniProt Q9Y2F5) -0.058
ICOSLG isoform 2 (UniProt O75144) -0.243
HMBS (UniProt F5H226) 0.086
HSP90AB4P (UniProt Q58FF6) 0.033
HYOU1, A0A494C039 0.061
HIF1AN (UniProt Q9NWT6) 0.092
HSF1 (UniProt Q00613) -0.399
HMBS (UniProt F5H0P4) 0.148
HTD2 (UniProt P86397) -0.11
ID1 (UniProt P41134) -0.344

Compound: CCN(CC)Cc1ccc2cc(COC(=O)Nc3ccc(C(=O)NO)cc3)ccc2c1 [givinostat]
Test: as above
In short: as §1

log2 fold change, inactive:
ICE2 (UniProt Q659A1) 0.117
HMGCLL1 (UniProt Q8TB92) -0.015
HIST2H2AA3 (UniProt Q6FI13) 0.234
HOMER3 (UniProt Q9NSC5) -0.048
HNRNPD (UniProt D6RF44) 0.05
ICA1 isoform 2 (UniProt Q05084) 0.008
HIGD2A (UniProt Q9BW72) -0.006
HUWE1, A0A087X1S3 0.079
HPS4 isoform 4 (UniProt Q9NQG7) -0.027
HUWE1 isoform 2 (UniProt Q7Z6Z7) -0.029
HNMT (UniProt P50135) -0.18
ICOSLG isoform 2 (UniProt O75144) -0.153
HSP90AB4P (UniProt Q58FF6) -0.046
HYOU1, A0A494C039 0.083
HIF1AN (UniProt Q9NWT6) -0.033
HSF1 (UniProt Q00613) 0.163
HOXD9 (UniProt P28356) -0.044
HSPBAP1 (UniProt Q96EW2) -0.116
HTR1F (UniProt P30939) 0.028
HTD2 (UniProt P86397) -0.033
ID1 (UniProt P41134) 0.276

Compound: CCN(CCCOc1ccc2c(Nc3cc(CC(=O)Nc4cccc(F)c4)[nH]n3)ncnc2c1)CCOP(=O)(O)O [barasertib]
Test: as above
In short: as §1

log2 fold change, inactive:
ICE2 (UniProt Q659A1) -0.038
HMGCLL1 (UniProt Q8TB92) -0.035
HIST2H2AA3 (UniProt Q6FI13) -0.32
HMG20B (UniProt Q9P0W2) -0.156
HUWE1, A0A087X1S3 -0.058
ICE1 (UniProt Q9Y2F5) 0.043
HSBP1 (UniProt O75506) 0.155
ICOSLG isoform 2 (UniProt O75144) 0.135
HMBS (UniProt F5H226) -0.049
HSP90AB4P (UniProt Q58FF6) 0.112
HYOU1, A0A494C039 0.017
HIF1AN (UniProt Q9NWT6) 0.048
HSF1 (UniProt Q00613) 0.088
HTD2 (UniProt P86397) 0.073
ID1 (UniProt P41134) -0.002
